The text below walks through data of patent US20030220267A1 (priority 2001, published 2003).

This data set is described as follows: general procedure: hybrid (solid and solution phase) peptide synthesis; dicyclohexylcarbodiimide (DCC) or other coupling reagents. The conditions noted are these: whole synthesis, based on 1H-NMR.

In the case of “[(1R)-1-(Ac-Thr-Leu-Asn)-2-phenylethyl]-B-methylene-L-proline amide borinic acid”, the crude yield is given as 88%. Under “[( 1R)-1-(Ac-Ser-Leu-Asn)-2-phenylethyl]-B-methylene-L-proline amide borinic acid” stands 56%.
